Measured values taken from PubChem BioAssay AID1347076 (National Center for Advancing Translational Sciences (NCATS), 2019).
About 13,000 (3.2%) of roughly 400,000 compounds were called active. This list was built around the results that the source calls inconclusive (neither active nor inactive); the mix of calls is not that of the screen. Calls follow the shape of the dose curve; as a rule, active = well fitted cell-killing curve with a large enough effect; inconclusive = small, poorly fitted or top-dose-only effect, or effect the other way; inactive = flat fitted curve, though single readings scatter. Potencies of inconclusive entries are doubtful fits and often do not repeat.

Assay: qHTS assay for MDR1-selective chemotherapeutics: Primary screen using the drug-selected MDR subline cells KB-V1; also: nearly all actives have a fitted effect of over 60% in size
Conditions: KB-V1 MDR cells viability, CellTiter-Glo, 72 h; activity change, negative = cytotoxicity: at 46.1 µM (top of the series)
Outline: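 Luminescent ATP read-out (CellTiter-Glo, 10 min) measures survival of drug-selected KB-V1 MDR cells after 72 h, 37 degrees C compound exposure. Medium: phenol-red-free DMEM, 10% FBS. Values from fitted concentration-response curves.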
% is scaled to controls: 0 for no effect and ±100 for the full control effect; potency is read from the fitted curve at half-maximal effect.

Which Potency does the source give for `Cc1ccc(OCc2cn3cccnc3n2)cc1` here?
The Potency was inconclusive: 29.1 µM [rising, single point].

With `O=S1(=O)CC(N2CCCCC2)CN1Cc1cn(Cc2ccc(F)cc2)nn1` (stereo not given) as the compound, how does the Potency read?
The Potency was inconclusive: 11.6 µM [cytotoxic, partial curve].

For `C=CCN1C(=O)/C(=C2/Sc3ccc(OC)cc3N2C)SC1=NCc1ccccc1`, which Potency is on record?
Its Potency is inconclusive: 29.1 µM [rising, single point].

For `CCOC(=O)c1c(S(=O)(=O)N2CCN(c3cc(Cl)ccc3C)CC2)c(C)n(C)c1C`, which “activity change, negative = cytotoxicity” value is on record?
Its value is inactive: -8.29%.

With `COCCn1c(SCc2ccc(C(=O)OC)o2)nnc1-c1c[nH]c2ccccc12` as the compound, how does the activity change, negative = cytotoxicity read?
Its activity change, negative = cytotoxicity is inconclusive: 30.7%.

Which Potency does the source give for `O=C(Cn1c2c(sc1=O)C1c3ccccc3OCC1CS2)Nc1ccc(Cl)cc1` (stereo not given) here?
The Potency was inconclusive: 4.61 µM [cytotoxic, full curve].

With `O=C(OCC(=O)N1CCN(C(=O)c2ccco2)CC1)c1cccc(O)c1` as the compound, how does the Potency read?
Its Potency is inconclusive: 29.1 µM [rising, single point].

For `COc1cc(OC)cc(C(=O)OCC(=O)Nc2ccc3[nH]c(=O)[nH]c3c2)c1`, which Potency is on record?
The Potency was inconclusive: 18.4 µM [rising, single point].

For `Cc1cn(-c2cc(C(=O)Nc3ccc(C)c(NC(=O)N4CCNC4=O)c3)cc(C(F)(F)F)c2)cn1`, which Potency is on record?
Its Potency is inconclusive: 32.6 µM [rising, single point].

Which Potency does the source give for `CCC(Sc1nc2n[nH]c(C)c2c(=N)n1-c1ccc(Br)cc1)C(=O)N(CC)CC` (stereo not given) here?
Its Potency is inconclusive: 29.1 µM [cytotoxic, single point].

Which Potency does the source give for `COc1cc2nc(C3CCC3)nc(N3CCN(c4ccccc4OC)CC3)c2cc1OC` here?
The Potency was active: 7.31 µM.

With `COc1cc(NS(=O)(=O)c2ccc3c(c2)OCC(C(=O)N2CCCC2)O3)cc(OC)c1` (stereo not given) as the compound, how does the Potency read?
Its Potency is inconclusive: 16.4 µM [cytotoxic, single point].

For `CCOP(=O)(OCC)C(Nc1ccccc1)c1cccnc1` (stereo not given), which “activity change, negative = cytotoxicity” value is on record?
The value was inactive: -2.3%.

Which activity change, negative = cytotoxicity does the source give for `O=C(CSc1nnc(-c2ccc(S(=O)(=O)N3CCOCC3)cc2)o1)c1ccccc1F` here?
Its activity change, negative = cytotoxicity is inconclusive: -30.2% [cytotoxic].

With `O=C(c1cccc(C(=O)N2CCN(Cc3ccccc3)CC2)c1)N1CCN(Cc2ccccc2)CC1` as the compound, how does the Potency read?
Its Potency is inconclusive: 23.1 µM [cytotoxic, partial curve, poor fit].

For `O=C(Nc1nccs1)c1cc(S(=O)(=O)N2CCCCC2)ccc1Cl`, which Potency is on record?
The Potency was inconclusive: 5.17 µM [cytotoxic, partial curve].

With `Clc1ccc(-c2noc(CSc3nnc(-c4ccncc4)n3-c3ccccc3)n2)cc1` as the compound, how does the Potency read?
Its Potency is active: 2.59 µM.

For `CC1(C)CC(=O)C2=C(C1)OC(N)=C([N+](=O)[O-])C2c1ccc(C#N)s1` (stereo not given), which “activity change, negative = cytotoxicity” value is on record?
The value was inactive: -10.1%.

For `COc1cccc(-c2ncc3ccccc3c2COC(=O)CCC(=O)O)c1`, which Potency is on record?
The Potency was inconclusive: 29.1 µM [rising, single point].

With `Cc1ccc(OCc2cc(C(=O)N3CCCC(C)C3)no2)cn1` (stereo not given) as the compound, how does the Potency read?
Its Potency is inconclusive: 29.1 µM [cytotoxic, single point].

For `COC(=O)[C@H](CCSC)NC(=O)Cn1cnc2c(SC)nc(N)nc21`, which “activity change, negative = cytotoxicity” value is on record?
Its value is inactive: 15.7%.

Which “activity change, negative = cytotoxicity” value does the source give for `COCCN(C(=O)COC(=O)c1cnc(C)cn1)c1c(N)n(Cc2ccccc2)c(=O)[nH]c1=O` here?
Its value is inactive: 24.8%.

Which Potency does the source give for `Cc1ccc(S(=O)(=O)c2nnn(-c3cccc(F)c3)c2N)cc1` here?
Its Potency is inconclusive: 18.4 µM [cytotoxic, single point].

With `O=C(Nc1cccc2ccccc12)N(CCO)C1CCS(=O)(=O)C1` (stereo not given) as the compound, how does the “activity change, negative = cytotoxicity” value read?
Its value is inactive: -16.3%.

Which Potency does the source give for `O=C(OCC(=O)N1CCC(c2ccccc2)=N1)c1ccc(Cl)s1` here?
Its Potency is inconclusive: 16.4 µM [rising, single point].

With `CCCc1cc2c(cc1N(C)S(=O)(=O)c1ccccc1)OCO2` as the compound, how does the “activity change, negative = cytotoxicity” value read?
Its value is inactive: -20.2%.

For `CCOC(=O)c1c(C)[nH]c(C(=O)COC(=O)CNS(=O)(=O)c2ccc(C)cc2)c1C`, which Potency is on record?
Its Potency is active: 4.61 µM.

With `CCC(C)Sc1ccc([C@@H]2[C@@H]3C(=O)N(CC)C(=O)[C@@H]3[C@]3(C(=O)OC)CCCCN23)cc1` (stereo not given in full) as the compound, how does the Potency read?
The Potency was inconclusive: 23.1 µM [cytotoxic, partial curve, poor fit].

Which “activity change, negative = cytotoxicity” value does the source give for `OCCCCNCc1ccc(OCc2ccc(Cl)cc2Cl)cc1` here?
The value was inactive: -0.976%.

With `O=C(CSc1nc(-c2ccco2)cc(C(F)(F)F)n1)Nc1cccnc1` as the compound, how does the Potency read?
Its Potency is inconclusive: 20.6 µM [cytotoxic, single point].

For `CC1CCCC/C1=N\NC(=S)Nc1cccnc1` (stereo not given), which Potency is on record?
The Potency was inconclusive: 4.61 µM [rising, full curve, poor fit].

For `Nc1cccc(Cl)c1N1CCOCC1`, which Potency is on record?
The Potency was inconclusive: 13 µM [rising, partial curve, poor fit].

Which Potency does the source give for `Cc1ccc(C(=O)NCc2cccs2)cc1S(=O)(=O)N1CCCCC1` here?
The Potency was inconclusive: 16.4 µM [cytotoxic, partial curve].

For `O=c1oc2ccccc2c(O)c1Cc1cc(Cl)c2cccnc2c1O`, which Potency is on record?
The Potency was inconclusive: 23.1 µM [cytotoxic, single point].

With `COc1cccc(CC2(CO)CCCN(Cc3ccccc3-c3ccco3)C2)c1` (stereo not given) as the compound, how does the Potency read?
Its Potency is inconclusive: 10.3 µM [cytotoxic, partial curve].

Which Potency does the source give for `O=C(CSc1nnc(CNc2ccccc2)o1)N1CCCc2ccccc21` here?
The Potency was active: 13 µM.

For `Cc1ccc(CS(=O)(=O)Cc2ccc(C(=O)NCCCN3CC(C)CC(C)C3)o2)cc1` (stereo not given), which Potency is on record?
The Potency was inconclusive: 20.6 µM [rising, single point].

Which Potency does the source give for `O=C(NC(c1ccccc1)c1ccccc1)C1CCCC1` here?
Its Potency is active: 16.4 µM.

Which activity change, negative = cytotoxicity does the source give for `Cc1nc(-c2ccc(Cl)cc2)sc1CCNC(=O)C(=O)Nc1ccccc1C#N` here?
The activity change, negative = cytotoxicity was inconclusive: -13.7%.

With `COCCCNCCOCCOc1ccc(C)cc1[N+](=O)[O-]` as the compound, how does the “activity change, negative = cytotoxicity” value read?
Its value is inactive: -7.46%.

For `COCCn1c(SCC(=O)Nc2cc(OC)ccc2OC)nc2c(c1=O)SC(C)C2` (stereo not given), which “activity change, negative = cytotoxicity” value is on record?
Its value is inactive: -7.8%.

Which Potency does the source give for `Cc1ccc(-c2nnc3c(C(F)(F)F)nc4ccccc4n23)cc1` here?
Its Potency is active: 20.6 µM.

For `Cc1cc(N2C(=O)C3C4c5ccccc5C(c5ccccc54)C3C2=O)no1` (stereo not given), which Potency is on record?
Its Potency is active: 8.2 µM.

With `c1ccc(-c2nnc(SCc3cn4ccsc4n3)o2)cc1` as the compound, how does the Potency read?
The Potency was inconclusive: 16.4 µM [cytotoxic, single point].

For `O=C(CC1CC2CCC1C2)N1CCN(S(=O)(=O)c2ccc(C(F)(F)F)cc2)CC1` (stereo not given), which Potency is on record?
Its Potency is inconclusive: 14.6 µM [cytotoxic, single point].
